Measurements reported in PubChem BioAssay AID743121 (NCATS, 2013).

- Screen: 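Partners whose loss is lethal together with topoisomerase I blockade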 (primary screen)
- Cells: MDA-MB-231 cells, a human breast cancer line
- Knock-down reagent: single siRNA against human genes, 20 nM siRNA (0.8 pmol per well)
- Time to read-out: 120 h (drug added 48 h after transfection, read 72 h later)
- Challenge: camptothecin 20 nM (about EC30) for 72 h; vehicle 0.1% DMSO in parallel plates
- Read-out: 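CellTiter-Glo ATP signal, scaled to control siRNA as percent viability; sensitisation given as log2 of untreated divided by camptothecin-treated viability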
- Scale: log2 vehicle/camptothecin viability: higher = stronger sensitisation to camptothecin; viability with camptothecin and viability without drug: higher = more viable cells
- Hit rule: 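Each gene scored by redundant siRNA activity (RSA) over its individual siRNA ratios; a gene is called active at p < 0.001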
In all, the deposit lists about 26,000 reagents; this is a part drawn at random. 167 of them (0.63%) count as active. 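Calls are per gene from RSA p-values that are not deposited; an individual active-marked siRNA can sensitise only weakly.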 Entries without a mark were called inactive. The numbers tell different reagents against one gene apart.

gene symbol,reagent,log2 vehicle/camptothecin viability,viability with camptothecin (% of control),viability without drug (% of control)
"RAB25 (RAB25, member RAS oncogene family)",1,-0.174,87.4,77.5
"RAB25 (RAB25, member RAS oncogene family)",2,-0.0735,85.2,81
"RAB25 (RAB25, member RAS oncogene family)",3,-0.0755,63,59.8
"RAB25 (RAB25, member RAS oncogene family)",4,-0.165,47.2,42.1
EPAS1 (endothelial PAS domain protein 1),1,0.022,79.6,80.8
EPAS1 (endothelial PAS domain protein 1),2,-0.568,32,21.6
EPAS1 (endothelial PAS domain protein 1),3,-0.249,68.5,57.6
EPAS1 (endothelial PAS domain protein 1),4,0.349,48.6,61.8
SLC9A9,1,-0.363,43.1,33.6
SLC9A9,2,0.197,65.1,74.6
SLC9A9,3,0.0728,51.1,53.7
SLC9A9,4,-0.133,101,92.4
KPNA6 (karyopherin subunit alpha 6),1,0.995,38.4,76.6
KPNA6 (karyopherin subunit alpha 6),2,-0.137,85.3,77.6
KPNA6 (karyopherin subunit alpha 6),3,-0.686,79.9,49.7
ARHGAP26 (Rho GTPase activating protein 26),1,0.115,101,110
ARHGAP26 (Rho GTPase activating protein 26),2,-0.524,50.8,35.3
ARHGAP26 (Rho GTPase activating protein 26),3,-0.196,104,90.4
ARHGAP26 (Rho GTPase activating protein 26),4,-0.11,74,68.6
CHEK2 (checkpoint kinase 2),1,-0.0529,103,99
CHEK2 (checkpoint kinase 2),2,-0.147,65,58.7
CHEK2 (checkpoint kinase 2),3,-0.0612,61.3,58.7
CHEK2 (checkpoint kinase 2),4,0.0994,105,112
IBTK (inhibitor of Bruton tyrosine kinase),1,0.287,18.3,22.4
IBTK (inhibitor of Bruton tyrosine kinase),2,-0.0234,97.8,96.2
IBTK (inhibitor of Bruton tyrosine kinase),3,-0.0942,71.5,67
IBTK (inhibitor of Bruton tyrosine kinase),4,-0.258,89.7,75
OR2H1 (olfactory receptor family 2 subfamily H member 1),1,-0.149,83.1,74.9
OR2H1 (olfactory receptor family 2 subfamily H member 1),2,0.322,54.7,68.4
OR2H1 (olfactory receptor family 2 subfamily H member 1),3,0.0347,98.8,101
OR2H1 (olfactory receptor family 2 subfamily H member 1),4,0.181,68.9,78.2
PXN (paxillin),1,0.24,49.4,58.3
PXN (paxillin),2,-0.493,85.3,60.6
PXN (paxillin),3,-0.0659,103,98.5
KCNA1 (potassium voltage-gated channel subfamily A member 1),1,-0.129,74.6,68.2
KCNA1 (potassium voltage-gated channel subfamily A member 1),2,-0.0904,97.7,91.7
KCNA1 (potassium voltage-gated channel subfamily A member 1),3,-0.621,101,65.4
KCNA1 (potassium voltage-gated channel subfamily A member 1),4,0.0872,96.8,103
NADK (NAD kinase),1,-0.82,77.1,43.7
NADK (NAD kinase),2,-0.592,85.6,56.8
NADK (NAD kinase),3,-0.302,56,45.4
NADK (NAD kinase),4,-0.518,83.3,58.2
DOP1A (DOP1 leucine zipper like protein A),1,0.00793,110,111
DOP1A (DOP1 leucine zipper like protein A),2,0.00453,99.7,100
DOP1A (DOP1 leucine zipper like protein A),3,-0.176,67.3,59.6
DOP1A (DOP1 leucine zipper like protein A),4,0.0153,88.7,89.6

A portion taken from the entries so far:
gene symbol,reagent,log2 vehicle/camptothecin viability,viability with camptothecin (% of control),viability without drug (% of control)
NADK (NAD kinase),4,-0.518,83.3,58.2
DOP1A (DOP1 leucine zipper like protein A),1,0.00793,110,111
DOP1A (DOP1 leucine zipper like protein A),2,0.00453,99.7,100
DOP1A (DOP1 leucine zipper like protein A),3,-0.176,67.3,59.6
DOP1A (DOP1 leucine zipper like protein A),4,0.0153,88.7,89.6

The listing continues.
gene symbol,reagent,log2 vehicle/camptothecin viability,viability with camptothecin (% of control),viability without drug (% of control)
FOXG1 (forkhead box G1),1,-0.403,104,79
FOXG1 (forkhead box G1),2,-0.368,70,54.2
FOXG1 (forkhead box G1),3,-0.068,78.9,75.3
FOXG1 (forkhead box G1),4,0.0525,92.8,96.3
GIT1 (GIT ArfGAP 1),1,-0.642,74.8,47.9
GIT1 (GIT ArfGAP 1),2,0.44,51.4,69.7
GIT1 (GIT ArfGAP 1),3,-0.218,21.5,18.5
GIT1 (GIT ArfGAP 1),4,-0.0366,33.3,32.5
BMP7 (bone morphogenetic protein 7),1,-0.308,47.5,38.4
BMP7 (bone morphogenetic protein 7),2,0.393,76.6,101
BMP7 (bone morphogenetic protein 7),3,0.266,20,24.1
BMP7 (bone morphogenetic protein 7),4,-0.185,91.2,80.3
CNTFR (ciliary neurotrophic factor receptor),1,-0.362,52.5,40.8
CNTFR (ciliary neurotrophic factor receptor),2,0.37,68.8,88.9
CNTFR (ciliary neurotrophic factor receptor),3,-0.307,21.4,17.3
CNTFR (ciliary neurotrophic factor receptor),4,-0.261,96.6,80.6
CPLX1 (complexin 1),1,-0.244,89.4,75.5
CPLX1 (complexin 1),2,-0.299,39.3,31.9
CPLX1 (complexin 1),3,-0.673,108,67.8
CPLX1 (complexin 1),4,0.143,27.1,29.9
LZTS2 (leucine zipper tumor suppressor 2),1,-0.337,84,66.5
LZTS2 (leucine zipper tumor suppressor 2),2,-0.0847,39.7,37.5
LZTS2 (leucine zipper tumor suppressor 2),3,-0.499,59.5,42.1
LZTS2 (leucine zipper tumor suppressor 2),4,1.17,6.68,15.1
